Measurements: US20110010780A1, “KCNN3 AS DIAGNOSTIC AND THERAPEUTIC TARGET FOR NEURODEGENERATIVE DISEASES” (EVOTEC NeuroSciences GmbH, priority 2005, published 2011)
For at least one compound, name, drawing or mass did not settle the structure. Positions of bridges follow the written chain, without caps; N, C: chain ends. Residues, ends and D or L forms follow the SMILES beside them.

Assays:
[1] = system: CHO wild type cells (CHO/−); experiment: cellular membrane potential assay in CHO wild type cells (control cell line); format: cell-based
SK-channels = conditions: all SK-channels, rather unspecifically; cited from earlier work

SMILES	effect on fluorescence (membrane potential) in CHO wild type cells [1]	block of SK-channels, potency (SK-channels)
CC(C)C[C@@H]1NC(=O)[C@H](C)NC(=O)[C@H]([C@@H](C)O)NC(=O)[C@H](CCC(=O)O)NC(=O)[C@@H]2CCCN2C(=O)[C@H](C)NC(=O)[C@H](CCCCN)NC(=O)[C@@H]2CSSC[C@@H](C(=O)N[C@@H](CCC(N)=O)C(=O)N[C@@H](CCC(N)=O)C(=O)N[C@@H](Cc3cnc[nH]3)C(N)=O)NC(=O)[C@H](CCCNC(=N)N)NC(=O)[C@H](CCCNC(=N)N)NC(=O)[C@H](C)NC(=O)[C@H](CSSC[C@H](N)C(=O)N[C@@H](CC(N)=O)C(=O)N2)NC1=O [apamin]	no effect	low nanomolar range
CC[C@H](C)[C@@H]1NC(=O)[C@@H]2CSSC[C@H](NC(=O)[C@H](Cc3ccccc3)NC(=O)[C@H](C)N)C(=O)N[C@@H](CC(N)=O)C(=O)N[C@@H](CC(C)C)C(=O)N[C@@H](CCCNC(=N)N)C(=O)N[C@@H](CCSC)C(=O)N[C@H]3CSSC[C@H](NC(=O)[C@H](CCCCN)NC(=O)[C@H](CC(=O)O)NC(=O)CNC1=O)C(=O)N[C@@H](CCC(=O)O)C(=O)N[C@H](C(=O)N[C@H](C(=O)N[C@@H](CCCCN)C(=O)N[C@@H](Cc1c[nH]cn1)C(N)=O)C(C)C)CSSC[C@H](NC(=O)[C@H](CO)NC(=O)[C@H](CC(C)C)NC(=O)[C@H](CCC(N)=O)NC3=O)C(=O)N[C@@H](CCCNC(=N)N)C(=O)N[C@@H](CO)C(=O)N[C@@H](CC(C)C)C(=O)NCC(=O)N[C@@H](CC(C)C)C(=O)N[C@@H](CC(C)C)C(=O)NCC(=O)N[C@@H](CCCCN)C(=O)N2 [scyllatoxin] (H-AFCNLRMCQLSCRSLGLLGKCIGDKCECVKH-NH2; disulfide 3-21, 8-26, 12-28)	–	low nanomolar range
